We go through 2 molecules from PMC9512010.

The target in assay [1] is T1, K+ channel isoform Kv4.3 (rat (endogenous in optic nerve)) (UniProt Q62897).
T1 sequence: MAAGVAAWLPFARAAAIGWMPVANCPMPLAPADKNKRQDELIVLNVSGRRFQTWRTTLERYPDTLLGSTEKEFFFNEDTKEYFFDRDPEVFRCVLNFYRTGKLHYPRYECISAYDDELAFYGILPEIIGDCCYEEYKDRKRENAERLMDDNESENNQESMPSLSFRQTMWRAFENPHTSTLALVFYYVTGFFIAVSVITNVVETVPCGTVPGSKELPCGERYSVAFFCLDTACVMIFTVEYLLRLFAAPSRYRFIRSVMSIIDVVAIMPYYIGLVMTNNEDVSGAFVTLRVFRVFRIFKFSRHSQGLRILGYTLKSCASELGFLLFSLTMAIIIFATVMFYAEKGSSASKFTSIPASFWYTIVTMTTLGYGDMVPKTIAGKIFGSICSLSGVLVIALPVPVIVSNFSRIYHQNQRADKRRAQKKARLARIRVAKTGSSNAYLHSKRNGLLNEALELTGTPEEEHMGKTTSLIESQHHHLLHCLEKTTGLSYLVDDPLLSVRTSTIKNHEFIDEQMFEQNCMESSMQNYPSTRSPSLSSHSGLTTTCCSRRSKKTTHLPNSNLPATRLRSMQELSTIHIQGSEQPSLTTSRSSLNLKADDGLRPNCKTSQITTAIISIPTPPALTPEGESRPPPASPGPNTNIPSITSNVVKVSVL
In words: co-IP; pre-cleared adult rat optic nerve lysate immunoprecipitated with rabbit polyclonal anti-Kv4.3 or mouse monoclonal anti-CaMKII antibody (Catch and Release v2.0), eluted non-denatured, Western blot; reciprocal.

Assay [2] has as its target Calcium/calmodulin-dependent protein kinase II (rat (endogenous in optic nerve)). The description is as above.

No constants are given. Whether binding was seen depends on the method and setting. In cells and extracts the contact can be indirect. Binding calls can cover weak binding; strength is not graded here.

“Calcium/calmodulin-dependent protein kinase II (rat (endogenous in optic nerve)) (enzyme)”: the binding entry in assay [1] is given as “binds”.

B1: K+ channel isoform Kv4.3 (protein, UniProt Q62897 1-655)
chain: T1 sequence
Regarding B1, in assay [2], the binding result is “binds”.
